This note sets out measurements from PMC7814966.

By UniProt entry, the sequences of proteins in these tests, tags left out. Where a name states a change or a piece, a line headed by the entry shows the natural chain unless it says otherwise.
UniProt G4MU71: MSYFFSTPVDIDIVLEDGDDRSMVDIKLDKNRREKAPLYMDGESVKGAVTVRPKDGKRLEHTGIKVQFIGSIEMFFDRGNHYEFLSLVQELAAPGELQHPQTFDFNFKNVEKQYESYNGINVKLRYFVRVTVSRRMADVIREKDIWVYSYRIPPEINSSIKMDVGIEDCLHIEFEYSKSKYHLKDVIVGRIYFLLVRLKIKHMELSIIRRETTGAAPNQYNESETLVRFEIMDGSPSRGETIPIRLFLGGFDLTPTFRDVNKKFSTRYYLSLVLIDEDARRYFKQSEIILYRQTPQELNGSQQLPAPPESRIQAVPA
UniProt G4MKD1: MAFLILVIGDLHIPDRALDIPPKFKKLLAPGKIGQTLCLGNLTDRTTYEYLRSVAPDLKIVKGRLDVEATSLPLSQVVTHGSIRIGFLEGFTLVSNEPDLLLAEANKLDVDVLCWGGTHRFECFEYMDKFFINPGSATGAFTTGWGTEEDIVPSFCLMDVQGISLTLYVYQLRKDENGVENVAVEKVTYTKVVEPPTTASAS
UniProt G4MYS1: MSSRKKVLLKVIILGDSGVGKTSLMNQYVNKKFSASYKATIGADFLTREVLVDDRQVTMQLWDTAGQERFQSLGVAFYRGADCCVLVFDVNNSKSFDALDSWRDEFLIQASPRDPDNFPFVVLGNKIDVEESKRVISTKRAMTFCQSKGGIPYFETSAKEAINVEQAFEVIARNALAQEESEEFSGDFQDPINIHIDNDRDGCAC

No constants are given. Whether binding was seen depends on the method and setting. In cells and extracts the contact can be indirect. A yes stands for co-enrichment or nearness to the bait. Other partners may have been found. Sequences can lack the tags named with a protein.

The test concerns the target T1, MoVps35-GFP (Magnaporthe oryzae) (UniProt G4N4D6).
T1 sequence: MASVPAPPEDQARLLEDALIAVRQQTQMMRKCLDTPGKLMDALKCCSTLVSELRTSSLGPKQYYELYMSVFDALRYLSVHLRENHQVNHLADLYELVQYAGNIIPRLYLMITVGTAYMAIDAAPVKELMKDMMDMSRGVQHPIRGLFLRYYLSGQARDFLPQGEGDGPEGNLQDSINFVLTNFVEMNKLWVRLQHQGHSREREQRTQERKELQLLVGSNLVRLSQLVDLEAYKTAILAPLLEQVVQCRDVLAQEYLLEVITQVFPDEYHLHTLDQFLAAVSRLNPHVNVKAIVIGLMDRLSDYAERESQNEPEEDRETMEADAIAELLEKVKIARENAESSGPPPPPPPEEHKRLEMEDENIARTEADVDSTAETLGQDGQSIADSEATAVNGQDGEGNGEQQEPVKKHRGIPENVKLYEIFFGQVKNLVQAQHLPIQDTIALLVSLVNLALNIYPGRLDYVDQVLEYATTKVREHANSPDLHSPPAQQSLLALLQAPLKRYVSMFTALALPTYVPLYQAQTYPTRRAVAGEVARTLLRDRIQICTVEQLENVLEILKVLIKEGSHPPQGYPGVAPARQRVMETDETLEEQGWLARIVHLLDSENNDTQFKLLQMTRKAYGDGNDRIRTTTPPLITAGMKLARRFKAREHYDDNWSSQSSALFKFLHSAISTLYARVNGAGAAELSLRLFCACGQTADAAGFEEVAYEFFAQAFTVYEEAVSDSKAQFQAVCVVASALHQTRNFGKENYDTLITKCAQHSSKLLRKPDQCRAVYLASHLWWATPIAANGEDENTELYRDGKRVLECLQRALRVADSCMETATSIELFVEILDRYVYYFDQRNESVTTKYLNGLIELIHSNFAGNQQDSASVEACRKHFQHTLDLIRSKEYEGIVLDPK
Description: affinity purification with mass spectrometry.

For MoVps26 (from UniProt G4MU71), the binding result is reported as “binds”.
Then MoVps29 (from UniProt G4MKD1), with “binds”; and MoYpt7 (from UniProt G4MYS1 1-205), with “binds”.
